Measured values reported in publication PMC4059965.
Results are given in words; binding and its absence hold for the method and conditions named. Binding seen in cells or lysates may run through a third protein. Some entries that bind do so weakly or less than the wild type. For some assays here: Where a sequence is shown, tags or fusion partners need not be part of it.

Sequences of proteins named here, by UniProt entry; tags and fusion partners are left off. A change or cut given only in a name is not applied to a line headed by its entry. Residues count along the entry.
UniProt P46940: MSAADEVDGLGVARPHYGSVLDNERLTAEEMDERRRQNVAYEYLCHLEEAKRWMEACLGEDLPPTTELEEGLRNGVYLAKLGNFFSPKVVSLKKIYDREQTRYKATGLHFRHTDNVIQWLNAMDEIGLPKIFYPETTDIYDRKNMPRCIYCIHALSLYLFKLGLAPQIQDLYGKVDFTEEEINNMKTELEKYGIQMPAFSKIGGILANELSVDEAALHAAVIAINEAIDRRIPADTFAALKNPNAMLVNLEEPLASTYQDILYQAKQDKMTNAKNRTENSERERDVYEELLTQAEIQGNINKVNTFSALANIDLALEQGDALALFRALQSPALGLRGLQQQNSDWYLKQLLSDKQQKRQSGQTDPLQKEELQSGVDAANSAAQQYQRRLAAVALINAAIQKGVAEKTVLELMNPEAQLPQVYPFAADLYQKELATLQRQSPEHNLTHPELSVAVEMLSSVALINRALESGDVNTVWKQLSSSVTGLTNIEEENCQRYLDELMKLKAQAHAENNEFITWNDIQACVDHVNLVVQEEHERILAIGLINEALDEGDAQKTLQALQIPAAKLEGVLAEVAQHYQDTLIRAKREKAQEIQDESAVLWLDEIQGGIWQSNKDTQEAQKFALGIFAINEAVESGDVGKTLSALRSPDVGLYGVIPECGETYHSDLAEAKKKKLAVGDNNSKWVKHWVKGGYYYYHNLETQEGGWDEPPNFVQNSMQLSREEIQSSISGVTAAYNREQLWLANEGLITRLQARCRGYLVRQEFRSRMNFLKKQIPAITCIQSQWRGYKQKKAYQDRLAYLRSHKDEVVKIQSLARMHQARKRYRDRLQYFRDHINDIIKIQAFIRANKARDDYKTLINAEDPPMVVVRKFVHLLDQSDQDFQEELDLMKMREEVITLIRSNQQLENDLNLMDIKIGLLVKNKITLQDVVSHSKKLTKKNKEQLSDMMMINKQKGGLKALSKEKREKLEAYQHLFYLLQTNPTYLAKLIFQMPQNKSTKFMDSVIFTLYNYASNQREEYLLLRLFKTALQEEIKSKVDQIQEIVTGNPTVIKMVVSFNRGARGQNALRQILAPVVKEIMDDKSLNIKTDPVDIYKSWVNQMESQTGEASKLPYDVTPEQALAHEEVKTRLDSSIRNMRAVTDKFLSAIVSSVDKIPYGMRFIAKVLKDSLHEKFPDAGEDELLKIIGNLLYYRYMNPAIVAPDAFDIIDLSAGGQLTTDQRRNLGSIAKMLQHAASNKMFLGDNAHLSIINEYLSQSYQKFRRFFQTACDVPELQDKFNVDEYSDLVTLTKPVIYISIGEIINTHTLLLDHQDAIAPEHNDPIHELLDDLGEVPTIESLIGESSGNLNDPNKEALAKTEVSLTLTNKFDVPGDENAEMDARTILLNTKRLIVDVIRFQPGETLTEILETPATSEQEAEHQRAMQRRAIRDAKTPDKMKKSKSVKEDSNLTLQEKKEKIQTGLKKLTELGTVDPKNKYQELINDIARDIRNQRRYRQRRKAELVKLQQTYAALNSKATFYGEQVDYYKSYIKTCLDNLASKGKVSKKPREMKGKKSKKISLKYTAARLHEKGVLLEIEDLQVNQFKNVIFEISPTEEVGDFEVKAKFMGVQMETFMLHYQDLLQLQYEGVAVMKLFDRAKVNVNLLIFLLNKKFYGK
GST-IQGAP1^717–863: residues 717-863 of P46940

Assays:
[1] = target: IQGAP1-GFP^wt (UniProt P46940); experiment: co-IP; HEK293 cells transfected; lysates pre-cleared, primary antibody (anti-GFP or anti-c-Myc) overnight at 4 °C, protein A or G Sepharose, washed three times with lysis buffer, immunoblot
[2] = target: GST-IQGAP1^717–863 (UniProt P46940); experiment: pull-down; GST-IQGAP1^717–863 on glutathione Sepharose beads with lysates of transfected HEK293 cells, NP-40 lysis buffer, 2 h at 4 °C, immunoblot; only the target purified

binding [1]	binding [2]	Binder
binds		RFP-PAK6 C-terminal mutant (domain or fragment, UniProt Q9NQU5 407-658) LDSYVKIGEGSTGIVCLAREKHSGRQVAVKMMDLRKQQRRELLFNEVVIMRDYQHFNVVEMYKSYLVGEELWVLMEFLQGGALTDIVSQVRLNEEQIATVCEAVLQALAYLHAQGVIHRDIKSDSILLTLDGRVKLSDFGFCAQISKDVPKRKSLVGTPYWMAPEVISRSLYATEVDIWSLGIMVIEMVDGEPPYFSDSPVQAMKRLRDSPPPKLKNSHKVSPVLRDFLERMLVRDPQERATAQELLDHPFL
	binds	GFP-PAK6 C-terminal mutant (domain or fragment, UniProt Q9NQU5 407-658) LDSYVKIGEGSTGIVCLAREKHSGRQVAVKMMDLRKQQRRELLFNEVVIMRDYQHFNVVEMYKSYLVGEELWVLMEFLQGGALTDIVSQVRLNEEQIATVCEAVLQALAYLHAQGVIHRDIKSDSILLTLDGRVKLSDFGFCAQISKDVPKRKSLVGTPYWMAPEVISRSLYATEVDIWSLGIMVIEMVDGEPPYFSDSPVQAMKRLRDSPPPKLKNSHKVSPVLRDFLERMLVRDPQERATAQELLDHPFL
